Values joined by “and” are separate entries in the source; they are usually repeats but may differ in a detail not shown here. Equal entries are not always repeated. Further values from the same series stand in other lists.
System: K. pneumoniae ATCC 43816 (WT)
Test: Checkerboard assay levofloxacin x EPI, WT strain
Type: cell-based, Klebsiella pneumoniae
Conditions: individual replicates, listed as Lev
Description: MIC experiments were carried out according to the CLSI guidelines (CLSI [2023]). Overnight cultures were diluted to an OD600 = 0.001 in CAMHB followed by addition of efflux pump inhibitors (EPIs) at a final concentration of 100 µM. […] Plates were incubated at 37 °C for up to 20 h. Bacterial viability was evaluated using the resazurin microtitre assay (REMA) and measured by fluorescence using a Tecan Spaert multimode plate reader (Ex: 530 nm Em: 590 nm). MICs were defined as the concentration that prevented 90% of resazurin turnover compared to the non-treated bacteria.
Bacterial suspensions, incubation and plate readouts were carried out as described above.

## C[C@H]1COc2c(N3CCN(C)CC3)c(F)cc3c(=O)c(C(=O)O)cn1c23 [Levofloxacin]
Lev 0.24 ng/mL + EPI 0.00 uM
  percentage resazurin turnover: 118% and 111% and 56% and 82% and 94% and 28%
Lev 0.49 ng/mL + EPI 0.00 uM
  percentage resazurin turnover: 87% and 92% and 84% and 111% and 103% and 35%
Lev 0.98 ng/mL + EPI 0.00 uM
  percentage resazurin turnover: 101% and 100% and 102% and 109% and 62%
Lev 1.95 ng/mL + EPI 0.00 uM
  percentage resazurin turnover: 67% and 114% and 101% and 41%
Lev 3.91 ng/mL + EPI 0.00 uM
  percentage resazurin turnover: 99% and 110% and 46%
Lev 7.81 ng/mL + EPI 0.00 uM
  percentage resazurin turnover: 109% and 104% and 79%
Lev 15.63 ng/mL + EPI 0.00 uM
  percentage resazurin turnover: 102% and 95% and 90%
Lev 31.25 ng/mL + EPI 0.00 uM
  percentage resazurin turnover: 69% and 59% and 100%
Lev 62.50 ng/mL + EPI 0.00 uM
  percentage resazurin turnover: -1.23% and -0.588% and -0.101%
Lev 500.00 ng/mL + EPI 0.00 uM
  percentage resazurin turnover: -1.06% and -0.604% and 0.0687%
Lev 1000 ng/mL + EPI 0.00 uM
  percentage resazurin turnover: -0.859% and -0.268% and -0.0599%

Source: publication PMC10897476, “Pyridylpiperazine efflux pump inhibitor boosts in vivo antibiotic efficacy against K. pneumoniae” (EMBO Molecular Medicine, 2023)
